Here are results for one sequence from paper doi:10.1101/2020.08.04.235721.

For at least one entry, the source does not settle the construct or the ends of the probe. For some of these results: At least one result comes from cells or an extract, where the contact may be indirect. The direction of at least one scale is not stated here. Tags and fusion partners may be left off the protein sequences shown.

Series [1] addresses T1, IRP1 (HeLa extract) (UniProt P21399).
T1 sequence (looked up, limits assumed): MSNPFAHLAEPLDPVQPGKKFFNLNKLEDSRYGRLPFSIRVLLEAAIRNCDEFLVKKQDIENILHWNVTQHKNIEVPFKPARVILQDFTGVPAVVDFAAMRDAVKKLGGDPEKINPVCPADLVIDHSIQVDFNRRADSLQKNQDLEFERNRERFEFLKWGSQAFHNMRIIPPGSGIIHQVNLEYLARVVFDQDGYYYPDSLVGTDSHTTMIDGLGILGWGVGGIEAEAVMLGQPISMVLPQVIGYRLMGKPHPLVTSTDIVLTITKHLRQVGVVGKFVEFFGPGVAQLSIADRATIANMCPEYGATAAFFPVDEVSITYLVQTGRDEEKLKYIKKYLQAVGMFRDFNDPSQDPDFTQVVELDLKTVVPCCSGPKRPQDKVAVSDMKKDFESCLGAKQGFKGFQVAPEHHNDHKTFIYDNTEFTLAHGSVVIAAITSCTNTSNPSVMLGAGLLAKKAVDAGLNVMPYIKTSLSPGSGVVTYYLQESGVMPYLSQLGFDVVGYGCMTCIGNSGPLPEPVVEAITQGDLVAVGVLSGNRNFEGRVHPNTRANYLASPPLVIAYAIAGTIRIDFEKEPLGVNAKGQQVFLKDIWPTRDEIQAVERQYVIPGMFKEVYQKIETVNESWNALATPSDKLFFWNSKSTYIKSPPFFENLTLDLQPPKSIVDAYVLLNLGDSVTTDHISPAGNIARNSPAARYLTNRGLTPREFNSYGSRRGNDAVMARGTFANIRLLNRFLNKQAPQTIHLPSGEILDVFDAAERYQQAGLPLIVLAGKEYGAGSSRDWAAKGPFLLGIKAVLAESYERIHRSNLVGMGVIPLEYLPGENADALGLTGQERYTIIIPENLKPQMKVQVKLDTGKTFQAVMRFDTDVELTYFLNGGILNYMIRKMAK
Nature of the series: EMSA. Particulars: relative to no DTT, protein in an extract.

Series [2] has as its target T2, IRP1 (recombinant) (human) (UniProt P21399).
T2 sequence (looked up, limits assumed): T1 sequence (looked up, limits assumed)
The experiment in a line: EMSA.

Turning to “GGCUCCUGAGGCGGCCGUACAAUCCUCGGCAGUGUCCUGAGACUGUAUGGUCAGCUCAGCCCAUG [Hif2α-IRE probe]”, the binding signal in series [1] (siCtr HeLa lysate + 300 mM DTT) amounted to 115%; in series [1] (siTrx1 HeLa lysate + 300 mM DTT), 194%; in series [2] (holo-Trx1 (reconstituted FeS-Trx1), relative to apo-Trx1), 44%; in series [2] (no reductant added (reference for 359% and 251%)) it was 100%.
